This passage reports binding results from patent US20240360234A1 (NKARTA, published 2024).

In the test the target is T1, CD70-hFc complex (extracellular domain of human CD70 fused with the Fc region of human IgG1) (human) (UniProt P32970).
T1 sequence (looked up): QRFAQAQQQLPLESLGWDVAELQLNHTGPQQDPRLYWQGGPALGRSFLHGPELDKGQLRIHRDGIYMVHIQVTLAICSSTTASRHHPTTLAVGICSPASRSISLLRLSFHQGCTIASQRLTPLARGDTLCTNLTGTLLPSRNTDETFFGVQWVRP
Put plainly: flow cytometry, CD70-hFc on NK72-transduced Jurkat cells (nearly 83% NK72 positive; the cells also carry endogenous CD27). In general terms: Flow cytometry measures light scatter and fluorescence of single cells or particles in a stream.

Results are given in words; binding and its absence hold for the method and conditions named. Some binding calls cover weakened binding; strength is not graded here. Sequences can lack the tags named with a protein.

B1: NK72 anti-CD70 CAR (scFv, not shown: a dimerising Fc or GST; small tags and cut ends)
scFv: EVQLVQSGAEVKKPGESLKISCKGSGYGFTSYWIGWVRQMPGKGLEWMGIIHPDDSDTKYSPSFQGQVTISADKSISTAYLQWSSLKASDTAMYYCASSYLRGLWGGYFDYWGQGTLVTVSSGGGGSGGGGSGGGGSELQSVLTQPPSASGTPGQRVTISCSGSSSNIGSNYVNWYQQLPGTAPKLLIYGDYQRPSGVPDRFSGSKSGTSASLAISGLRSEDEADYYCATRDDSLSGSVVFGTGTKLTVL
For B1, the binding result is “binds”.
